Reference: PubChem BioAssay AID493246 (Drosophila RNAi Screening Center, 2011)
In all, the deposit lists about 21,000 reagents; shown is a random part of those that have a named target and a result. Of all reagents, 429 (2%) got an active call. 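Values are raw and not normalised between plates; calls rest on per-plate z-scores that were not deposited.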 Names joined by + are all predicted targets of the reagent. Not stated in the record: the amount of reagent, the time to read-out.

Test: 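Identify essential fly genes by loss of cell viability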 (primary screen)
System: Drosophila Kc and S2R+ cells
Reagent: long dsRNA against Drosophila genes
Detection: 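Raw, unnormalised count of remaining cells in each well; per-plate z-scores of cell number underlie the calls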
Scale: Kc cell number and S2R+ cell number: higher = more cells remaining
Active means: 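Counted as a hit if cell number falls by a z-score of at least 3 within its plate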

Which result is listed for CG32195 [SID104189325]?
Kc cell number, rep 1: 1.36e6; Kc cell number, rep 2: 1.45e6; S2R+ cell number, rep 1: 1.14e6; S2R+ cell number, rep 2: 1.32e6; Outcome: inactive

What did the screen give for Irk2 (Inwardly rectifying potassium channel 2) [SID104195361]?
Kc cell number, rep 1: 1.56e6; Kc cell number, rep 2: 1.67e6; S2R+ cell number, rep 1: 1.21e6; S2R+ cell number, rep 2: 1.37e6; Outcome: inactive

For CG7912 [SID104196135], how do the results read?
Kc cell number, rep 1: 1.53e6; Kc cell number, rep 2: 1.60e6; S2R+ cell number, rep 1: 1.10e6; S2R+ cell number, rep 2: 1.20e6; Outcome: inactive

With Ank (Ankyrin) [SID104196919], what does the deposit list?
Kc cell number, rep 1: 4.94e5; S2R+ cell number, rep 1: 7.66e5; Outcome: inactive

Which result is listed for Acp26Ab (Accessory gland protein 26Ab) [SID104181648]?
Kc cell number, rep 1: 1.53e6; Kc cell number, rep 2: 1.39e6; S2R+ cell number, rep 1: 1.12e6; S2R+ cell number, rep 2: 1.24e6; Outcome: inactive

How did the screen score SA1 (Stromalin 1) [SID104183216]?
Kc cell number, rep 1: 1.12e6; Kc cell number, rep 2: 1.34e6; S2R+ cell number, rep 1: 6.42e5; S2R+ cell number, rep 2: 8.46e5; Outcome: inactive

What is on record for CAH1 + Adat1 [SID104181801]?
Kc cell number, rep 1: 1.24e6; Kc cell number, rep 2: 1.38e6; S2R+ cell number, rep 1: 1.10e6; S2R+ cell number, rep 2: 1.07e6; Outcome: inactive

How did the screen score CG15255 [SID104181661]?
Kc cell number, rep 1: 1.50e6; Kc cell number, rep 2: 1.55e6; S2R+ cell number, rep 1: 1.12e6; S2R+ cell number, rep 2: 1.24e6; Outcome: inactive

What is on record for CG11409 [SID104198371]?
Kc cell number, rep 1: 5.59e5; S2R+ cell number, rep 1: 8.07e5; Outcome: inactive

What did the screen give for ppk10 (pickpocket 10) [SID104180915]?
Kc cell number, rep 1: 1.76e6; Kc cell number, rep 2: 1.82e6; S2R+ cell number, rep 1: 1.09e6; S2R+ cell number, rep 2: 1.28e6; Outcome: inactive

What did the screen give for Ilp7 (Insulin-like peptide 7) [SID104197687]?
Kc cell number, rep 1: 1.61e6; Kc cell number, rep 2: 1.52e6; S2R+ cell number, rep 1: 1.04e6; S2R+ cell number, rep 2: 1.20e6; Outcome: inactive

For ENGase (Endo-beta-N-acetylglucosaminidase) [SID104199745], what was measured?
Kc cell number, rep 1: 1.47e6; Kc cell number, rep 2: 1.49e6; S2R+ cell number, rep 1: 1.03e6; S2R+ cell number, rep 2: 1.15e6; Outcome: inactive

How did the screen score TTLL6A (Tubulin tyrosine ligase-like 6A) [SID104186410]?
Kc cell number, rep 1: 1.50e6; Kc cell number, rep 2: 1.59e6; S2R+ cell number, rep 1: 1.21e6; S2R+ cell number, rep 2: 1.35e6; Outcome: inactive

For CG4641 (retired record) [SID104190231], how do the results read?
Kc cell number, rep 1: 1.58e6; Kc cell number, rep 2: 1.72e6; S2R+ cell number, rep 1: 1.27e6; S2R+ cell number, rep 2: 1.19e6; Outcome: inactive

What did the screen give for CG4074 [SID104191544]?
Kc cell number, rep 1: 1.31e6; Kc cell number, rep 2: 1.26e6; S2R+ cell number, rep 1: 1.27e6; S2R+ cell number, rep 2: 1.41e6; Outcome: inactive

What did the screen give for CG34234 + Dh44-R2 [SID104187070]?
Kc cell number, rep 1: 1.34e6; Kc cell number, rep 2: 1.52e6; S2R+ cell number, rep 1: 1.12e6; S2R+ cell number, rep 2: 1.10e6; Outcome: inactive

Which result is listed for CG7906 [SID104190720]?
Kc cell number, rep 1: 1.54e6; Kc cell number, rep 2: 1.54e6; S2R+ cell number, rep 1: 1.36e6; S2R+ cell number, rep 2: 1.34e6; Outcome: inactive

Which result is listed for CG5961 [SID104195719]?
Kc cell number, rep 1: 1.75e6; Kc cell number, rep 2: 1.90e6; S2R+ cell number, rep 1: 1.44e6; S2R+ cell number, rep 2: 1.52e6; Outcome: inactive

For CG14840 [SID104194756], what does the deposit list?
Kc cell number, rep 1: 1.25e6; Kc cell number, rep 2: 1.28e6; S2R+ cell number, rep 1: 1.21e6; S2R+ cell number, rep 2: 1.41e6; Outcome: inactive

Which result is listed for CG8701 [SID104187029]?
Kc cell number, rep 1: 1.29e6; Kc cell number, rep 2: 1.37e6; S2R+ cell number, rep 1: 1.13e6; S2R+ cell number, rep 2: 1.18e6; Outcome: inactive

For CG8646 [SID104187022], what does the deposit list?
Kc cell number, rep 1: 1.61e6; Kc cell number, rep 2: 1.63e6; S2R+ cell number, rep 1: 1.27e6; S2R+ cell number, rep 2: 1.42e6; Outcome: inactive

What did the screen give for Tsp42Ef (Tetraspanin 42Ef) [SID104185983]?
Kc cell number, rep 1: 1.55e6; Kc cell number, rep 2: 1.64e6; S2R+ cell number, rep 1: 1.20e6; S2R+ cell number, rep 2: 1.34e6; Outcome: inactive

With CG15450 [SID104200314], what does the deposit list?
Kc cell number, rep 1: 1.37e6; Kc cell number, rep 2: 1.30e6; S2R+ cell number, rep 1: 1.01e6; S2R+ cell number, rep 2: 1.14e6; Outcome: inactive

What did the screen give for CG14011 [SID104182135]?
Kc cell number, rep 1: 1.47e6; Kc cell number, rep 2: 1.31e6; S2R+ cell number, rep 1: 1.07e6; S2R+ cell number, rep 2: 1.24e6; Outcome: inactive

What is on record for CG14230 [SID104199378]?
Kc cell number, rep 1: 1.75e6; Kc cell number, rep 2: 1.78e6; S2R+ cell number, rep 1: 1.04e6; S2R+ cell number, rep 2: 1.11e6; Outcome: inactive

For CG17147 [SID104190041], what does the deposit list?
Kc cell number, rep 1: 1.69e6; Kc cell number, rep 2: 1.82e6; S2R+ cell number, rep 1: 1.25e6; S2R+ cell number, rep 2: 1.44e6; Outcome: inactive

With Calx (Na/Ca-exchange protein) [SID104193249], what does the deposit list?
Kc cell number, rep 1: 1.75e6; Kc cell number, rep 2: 1.90e6; S2R+ cell number, rep 1: 1.13e6; S2R+ cell number, rep 2: 1.25e6; Outcome: inactive

With Calx (Na/Ca-exchange protein) [SID104193251], what does the deposit list?
Kc cell number, rep 1: 1.49e6; Kc cell number, rep 2: 1.48e6; S2R+ cell number, rep 1: 1.11e6; S2R+ cell number, rep 2: 1.09e6; Outcome: inactive

For Calx (Na/Ca-exchange protein) [SID104196391], how do the results read?
Kc cell number, rep 1: 1.44e6; Kc cell number, rep 2: 1.32e6; S2R+ cell number, rep 1: 1.11e6; S2R+ cell number, rep 2: 1.16e6; Outcome: inactive

Part of the list above, showing only “Kc cell number, rep 2”:
CG8701 [SID104187029] = 1.37e6
CG8646 [SID104187022] = 1.63e6
